# Measured values taken from patent US20060142180A1, “Cholinergic modulation of microglial activation via alpha-7 nicotinic receptors” (priority 2003, published 2006).
# At least one structure is not confirmed: it was looked up by name or label, or the drawing left a doubt.
# Test system: LPS-induced TNF-α release in primary cultured microglial cells
# Assay: LPS-induced TNF-α release from primary cultured microglial cells (ELISA)
# Assay type: cell-based, mouse
# Description: Murine primary culture microglial cells were isolated from mouse cerebral cortices (C57BL/6 mice) and cultured as previously described (Tan et al. 2000b). To investigate whether α7 nAChR subunits are expressed in microglial cells, we first isolated total RNA from N9 microglial cell line and primary cultured microglial cells for RT-PCR analysis.
# To determine whether ACh or nicotine could inhibit LPS-induced TNF-α production in these microglial cells, the inventors pre-incubated microglial cells with ACh or nicotine for 30 minutes and challenged these cells with LPS for 4 hours. […] Primary cultured microglial cells pretreated with ACh (FIG. 3B) or nicotine […] at a range of dose as indicated for 30 minutes and challenged with LPS (100 ng/mL) for 4 hours. Microglial TNF-α release was measured by ELISA.
smiles,measurement,setting,value
"CC(=O)OCC[N+](C)(C)C [ACh, acetylcholine]",LPS-induced TNF-α release,"pre-stimulated 30 minutes at 5 μM, then LPS 100 ng/mL for 4 hours, p<0.01 vs LPS (FIG. 3A)",marked reduction
same,dose dependence of inhibition of microglial LPS-induced TNF-α production,"pretreated 30 minutes, 1.25 μM to 10 μM, LPS 100 ng/mL 4 hours, p<0.01 across doses (FIGS. 3B and C)",dose-dependently inhibits
